What all share (assay): co-IP; HEK293T cotransfected with ZNRF1-GFP and Flag-tagged TLR1, TLR4, TLR7 or TLR9 for 36 h; lysates immunoprecipitated with anti-M2-Flag antibody, immunoblotting
(A western blot detects proteins with antibodies after separation by electrophoresis.)

By UniProt entry, the sequences of proteins in these tests, tags left out. Residues count along the entry.
UniProt Q9QUK6, residues 26-835: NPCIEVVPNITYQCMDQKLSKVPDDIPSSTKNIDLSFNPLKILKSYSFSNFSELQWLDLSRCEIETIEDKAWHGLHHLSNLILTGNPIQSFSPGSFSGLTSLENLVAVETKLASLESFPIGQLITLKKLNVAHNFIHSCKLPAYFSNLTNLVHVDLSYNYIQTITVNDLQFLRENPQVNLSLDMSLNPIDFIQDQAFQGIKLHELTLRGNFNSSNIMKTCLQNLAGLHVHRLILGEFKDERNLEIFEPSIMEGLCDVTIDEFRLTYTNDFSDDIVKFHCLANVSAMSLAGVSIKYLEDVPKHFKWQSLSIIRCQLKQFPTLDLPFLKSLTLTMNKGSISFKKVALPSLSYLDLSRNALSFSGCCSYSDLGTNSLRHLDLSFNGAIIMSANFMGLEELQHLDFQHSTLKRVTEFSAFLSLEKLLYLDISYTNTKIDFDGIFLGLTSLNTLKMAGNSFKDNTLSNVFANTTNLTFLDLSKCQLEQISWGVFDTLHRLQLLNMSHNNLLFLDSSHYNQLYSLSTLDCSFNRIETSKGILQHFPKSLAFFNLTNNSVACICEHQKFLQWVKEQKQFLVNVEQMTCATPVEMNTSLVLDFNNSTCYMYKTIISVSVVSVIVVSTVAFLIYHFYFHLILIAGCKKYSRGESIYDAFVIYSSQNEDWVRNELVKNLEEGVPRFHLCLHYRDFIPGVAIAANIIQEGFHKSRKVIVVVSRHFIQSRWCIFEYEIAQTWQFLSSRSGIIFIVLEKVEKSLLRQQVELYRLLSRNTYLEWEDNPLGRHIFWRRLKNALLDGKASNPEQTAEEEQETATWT

Test [1] addresses T1, Flag-tagged TLR1 (UniProt Q9EPQ1).
T1 sequence: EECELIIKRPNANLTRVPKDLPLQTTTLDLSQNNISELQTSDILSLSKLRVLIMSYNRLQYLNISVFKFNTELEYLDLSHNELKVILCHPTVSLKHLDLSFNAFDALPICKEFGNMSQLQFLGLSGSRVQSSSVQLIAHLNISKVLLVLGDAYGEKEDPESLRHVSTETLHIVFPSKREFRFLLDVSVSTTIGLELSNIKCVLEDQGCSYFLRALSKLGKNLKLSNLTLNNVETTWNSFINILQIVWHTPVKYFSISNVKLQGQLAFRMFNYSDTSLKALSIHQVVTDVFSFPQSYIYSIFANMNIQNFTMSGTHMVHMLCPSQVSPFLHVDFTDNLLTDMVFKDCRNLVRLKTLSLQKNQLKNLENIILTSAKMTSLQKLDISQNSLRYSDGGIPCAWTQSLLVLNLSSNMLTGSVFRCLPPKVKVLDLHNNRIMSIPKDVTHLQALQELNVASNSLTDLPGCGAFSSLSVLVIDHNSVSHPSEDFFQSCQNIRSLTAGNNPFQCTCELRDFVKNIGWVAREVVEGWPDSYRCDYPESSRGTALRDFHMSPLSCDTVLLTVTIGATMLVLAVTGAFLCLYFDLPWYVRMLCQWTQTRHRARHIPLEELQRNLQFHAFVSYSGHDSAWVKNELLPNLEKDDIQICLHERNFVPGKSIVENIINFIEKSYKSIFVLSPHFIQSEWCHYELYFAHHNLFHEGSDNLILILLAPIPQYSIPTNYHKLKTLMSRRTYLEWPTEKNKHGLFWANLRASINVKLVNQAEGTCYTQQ

Test [2] addresses Flag-tagged TLR4 (UniProt Q9QUK6).
Test [3] deals with T2, Flag-tagged TLR7 (UniProt P58681).
T2 sequence: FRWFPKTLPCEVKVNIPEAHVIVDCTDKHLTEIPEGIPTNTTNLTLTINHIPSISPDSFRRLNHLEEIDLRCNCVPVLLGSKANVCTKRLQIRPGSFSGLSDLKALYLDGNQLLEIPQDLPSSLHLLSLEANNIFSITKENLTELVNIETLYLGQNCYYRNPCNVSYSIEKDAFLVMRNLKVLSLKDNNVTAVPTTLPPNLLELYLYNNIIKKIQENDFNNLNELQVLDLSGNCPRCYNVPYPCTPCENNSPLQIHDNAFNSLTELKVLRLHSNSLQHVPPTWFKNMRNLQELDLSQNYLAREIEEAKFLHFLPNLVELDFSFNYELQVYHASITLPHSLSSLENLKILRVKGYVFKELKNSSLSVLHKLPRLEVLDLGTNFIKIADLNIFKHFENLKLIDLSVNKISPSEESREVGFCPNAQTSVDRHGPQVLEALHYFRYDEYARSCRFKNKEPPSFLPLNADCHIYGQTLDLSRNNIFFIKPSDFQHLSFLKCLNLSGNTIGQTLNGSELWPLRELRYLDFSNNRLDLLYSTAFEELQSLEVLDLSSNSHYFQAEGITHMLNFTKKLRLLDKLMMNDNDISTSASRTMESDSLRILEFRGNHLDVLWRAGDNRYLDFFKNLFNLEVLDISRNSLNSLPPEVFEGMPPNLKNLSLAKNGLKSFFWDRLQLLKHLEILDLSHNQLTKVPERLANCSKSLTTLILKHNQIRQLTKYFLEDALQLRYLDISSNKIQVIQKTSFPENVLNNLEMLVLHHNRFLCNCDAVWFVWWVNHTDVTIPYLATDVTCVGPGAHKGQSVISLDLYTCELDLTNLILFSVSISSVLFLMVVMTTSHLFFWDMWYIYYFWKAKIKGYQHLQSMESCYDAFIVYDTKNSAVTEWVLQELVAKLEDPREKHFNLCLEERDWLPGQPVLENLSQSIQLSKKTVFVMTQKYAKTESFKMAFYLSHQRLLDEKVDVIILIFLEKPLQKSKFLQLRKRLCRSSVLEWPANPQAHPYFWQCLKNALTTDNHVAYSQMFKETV

The target in test [4] is T3, Flag-tagged TLR9 (UniProt Q9EQU3).
T3 sequence: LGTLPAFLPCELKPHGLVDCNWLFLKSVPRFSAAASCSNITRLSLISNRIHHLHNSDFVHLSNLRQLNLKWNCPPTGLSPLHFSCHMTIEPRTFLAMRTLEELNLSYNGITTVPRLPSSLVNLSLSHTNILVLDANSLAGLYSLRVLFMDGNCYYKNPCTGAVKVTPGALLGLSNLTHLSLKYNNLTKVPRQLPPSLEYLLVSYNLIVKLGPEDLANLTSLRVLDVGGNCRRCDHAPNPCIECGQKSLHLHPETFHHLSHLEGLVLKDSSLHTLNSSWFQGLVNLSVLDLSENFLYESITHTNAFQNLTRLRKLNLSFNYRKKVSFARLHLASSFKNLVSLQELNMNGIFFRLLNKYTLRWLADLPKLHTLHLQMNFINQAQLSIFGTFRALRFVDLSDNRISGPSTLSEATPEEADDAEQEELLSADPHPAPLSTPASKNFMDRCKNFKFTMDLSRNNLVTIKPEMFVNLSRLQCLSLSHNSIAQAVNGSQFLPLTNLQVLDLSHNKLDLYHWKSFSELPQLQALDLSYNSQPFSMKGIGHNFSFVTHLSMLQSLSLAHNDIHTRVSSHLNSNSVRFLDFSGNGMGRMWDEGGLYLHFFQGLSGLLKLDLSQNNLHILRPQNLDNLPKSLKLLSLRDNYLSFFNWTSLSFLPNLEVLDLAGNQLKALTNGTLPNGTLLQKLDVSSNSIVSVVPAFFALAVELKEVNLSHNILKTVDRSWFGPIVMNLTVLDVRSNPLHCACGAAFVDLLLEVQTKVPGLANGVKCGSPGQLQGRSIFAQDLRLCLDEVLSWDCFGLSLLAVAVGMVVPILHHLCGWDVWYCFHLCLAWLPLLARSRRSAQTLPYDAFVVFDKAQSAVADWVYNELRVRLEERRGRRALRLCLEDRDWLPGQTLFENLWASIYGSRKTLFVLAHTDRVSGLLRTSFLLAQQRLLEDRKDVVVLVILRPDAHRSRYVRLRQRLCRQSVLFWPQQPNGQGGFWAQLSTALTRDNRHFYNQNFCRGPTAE

Results are given in words; binding and its absence hold for the method and conditions named. In cells and extracts the contact can be indirect. Some entries that bind do so weakly or less than the wild type. Sequences can lack the tags named with a protein.

B1: ZNRF1-GFP (enzyme, UniProt Q91V17 1-227)
chain: MGGKQSTAARSRGPFPGVSTDDSAVPPPGGAPHFGHYRTGGGAMGLRSRSVSSVAGMGMDPSTAGGVPFSLYTPASRGTGDSERAPGGGGSTSDSTYAHGNGYQETGGGHHRDGMLYLGSRASLADALPLHIAPRWFSSHSGFKCPICSKSVASDEMEMHFIMCLSKPRLSYNDDVLTKDAGECVICLEELLQGDTIARLPCLCIYHKSCIDSWFEVNRSCPEHPAD
For the molecule B1, the binding entry in test [1] was “no binding”; in test [2], “no binding”; in test [3], “binds”; in test [4], “binds”.

Source of the values: PMC10174191.
